Reference: publication doi:10.1101/2021.12.02.470854
Results are given in words; binding and its absence hold for the method and conditions named. Binding seen in cells or lysates may run through a third protein. Some binding calls cover weakened binding; strength is not graded here. Tags and fused reporters may be left off the sequences shown.

Molecular target: T1, CTP synthase (CTPS), HA-tagged, expressed from pAc5.1 CTPS-HA-T2A-If-V5 (Drosophila (cDNA from the w1118 line)) (UniProt Q9VUL1)
T1 sequence: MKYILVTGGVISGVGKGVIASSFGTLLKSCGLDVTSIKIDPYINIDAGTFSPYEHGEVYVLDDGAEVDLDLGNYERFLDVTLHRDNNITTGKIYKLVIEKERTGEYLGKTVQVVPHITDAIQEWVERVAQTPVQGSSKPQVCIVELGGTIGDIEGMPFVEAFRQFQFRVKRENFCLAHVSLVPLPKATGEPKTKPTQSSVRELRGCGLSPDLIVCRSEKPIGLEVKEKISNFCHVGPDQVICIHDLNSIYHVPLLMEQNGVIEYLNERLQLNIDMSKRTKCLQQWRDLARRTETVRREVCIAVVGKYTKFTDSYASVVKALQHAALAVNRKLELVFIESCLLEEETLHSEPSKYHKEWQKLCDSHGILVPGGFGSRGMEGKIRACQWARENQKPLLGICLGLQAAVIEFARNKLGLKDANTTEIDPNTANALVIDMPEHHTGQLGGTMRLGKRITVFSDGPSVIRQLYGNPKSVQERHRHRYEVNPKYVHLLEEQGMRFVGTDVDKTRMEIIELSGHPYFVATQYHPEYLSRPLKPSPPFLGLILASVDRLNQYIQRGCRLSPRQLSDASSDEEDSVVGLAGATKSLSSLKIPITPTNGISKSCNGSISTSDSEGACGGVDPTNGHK
Assay: co-IP

binding: binds
B1: Integrin αPS2 subunit Inflated (If), V5-tagged, expressed from pAc5.1 CTPS-HA-T2A-If-V5 (receptor, UniProt P12080 32-1396)
chain: YNIDLPSYVRFRQSSNSMFGFSIAMHKGRSGFYGNQNNVSLIVGAPKFDTSRYQQGVTEAGGVFKCSLNDDDCKLVPFDSKGNNRNVDKEVVDRKSYQWLGATVATGRDSDLVVACAPRYVFHTMTPSRAFRIDPVGTCFTSHNFEEFYEVSPCRTNNWGYHRQGSCQAGFSAAINGNGSRLFIGAPGSWYWQGQTYSIPPDAKFPFKPPLYQPFGTGGMASSHDVTRPENQVFSTSESASVNDDSYLGYSMVTGDFDGDRSEDVAIGMPRGGNLVGRIVVNRWNMANIFNITGRQIGEYFGYSLATSDVDGDGLDDLLIGAPMYTDPDNVEGKYDVGRVYILLQGGPTEEKRWTTEHIRDGYHSKGRFGLALTTLGDVNGDGYGDFAVGAPYDGPEGRGVVYIFHGSPMGPLAKPSQIIKSEQLVEGAPYPRTFGFALSGGLDMDGNTYPDLAVGAYSSDQVFIFKSRPVAAVNAETSFASNSKLISLDDRSCQLVRDHKKVPCMLLTTCWSYTGRYLPEQLDFDVSWLLDAKKLLNPRMFFLRDEGKNIRNQTIRLNYGQKYCLNETVYLLDKVQDKLTPLEVEARYNLRSSRPLDPMVRHRRSILEPVIDQNREIVLRDAINIQKNCGPDNICEPDLKLKVSTVDKYLFGSPEPLVIEVFISNTNEDAFEAAFYMVTPPDLQFRKLQQLGEKKDTPITCSPPTPENNHTLKCDIGNPLESGKIAHFKISLVPEEKYGSSSSYDFYWEANSTNLEKPGSEYDNKIRQSVGIWVDTDLDIKGTSLPDYQLYKADDYKELENATKEDDIGPQVVHIYEIRNNRPSIIEEAEVFIHLPYETIVGDPLMYLLNQPETGGKIQCDDVAFNEYNLLLDEKLVKKSYLQAQGAIWNSAQVSGQSSSSSSSGGASVHIEKARGEGFVRGVLVSNSTDAGDKLSPKQVEQRRQEDTLEALGDASFVHRDRASQAVQEPQVNQTSFTTYSTSSSSSGSGAPSAQLRGHSTQGHIQMAGPVQHTSSSSSSNYRSWPAQQQQQHQQLLLAGSGGSGLGSPVTFNDKSQFGGRNNNFHTGTLDLGTLNRGNVDNELYRSQGQYQNPSQSLGQSQGQFQANANQGHYQGQNQAQFQARNPGFQGQTSYQGQTQYSGQPGGYQTHHVTYSSGSKPYYGRENEDFYDEDNLQQATPGHWSSSSSSSSSSGTRRLRRSNDKDGATEKPLQIDLNSPCQSARCKSIRCVVTNLGTEDGDAAFVAIRARMVAKTMEKLASNVPLNVSTLAVANVTLLPFIGAPKDAIVKTHEIFYKAEPEPLQVPDVVPLWVVVLAACAGALIFLLLVWLLYKCGFFNRNRPTDHSQERQPLRNGYHGDEHL
